Results are given in words; binding and its absence hold for the method and conditions named. In cells and extracts the contact can be indirect. Some results given as binding are weak or reduced against the parent protein; the word gives no strength.
What was measured:
JCV T-Antigen (JC virus) = molecular target: T1, JCV T-Antigen (JC virus) (UniProt P03072); assay: co-IP; 500 µg nuclear or cytoplasmic extract of HCT116 cells transfected with T-Antigen or empty vector; IP with 10 µg anti-T-Antigen antibody overnight at 4°C, Protein A/G magnetic beads, washed in HNTG buffer (20 mM HEPES, 150 mM NaCl, 10% glycerol, 0.1% Triton X-100); Western blot for β-catenin
T1 sequence: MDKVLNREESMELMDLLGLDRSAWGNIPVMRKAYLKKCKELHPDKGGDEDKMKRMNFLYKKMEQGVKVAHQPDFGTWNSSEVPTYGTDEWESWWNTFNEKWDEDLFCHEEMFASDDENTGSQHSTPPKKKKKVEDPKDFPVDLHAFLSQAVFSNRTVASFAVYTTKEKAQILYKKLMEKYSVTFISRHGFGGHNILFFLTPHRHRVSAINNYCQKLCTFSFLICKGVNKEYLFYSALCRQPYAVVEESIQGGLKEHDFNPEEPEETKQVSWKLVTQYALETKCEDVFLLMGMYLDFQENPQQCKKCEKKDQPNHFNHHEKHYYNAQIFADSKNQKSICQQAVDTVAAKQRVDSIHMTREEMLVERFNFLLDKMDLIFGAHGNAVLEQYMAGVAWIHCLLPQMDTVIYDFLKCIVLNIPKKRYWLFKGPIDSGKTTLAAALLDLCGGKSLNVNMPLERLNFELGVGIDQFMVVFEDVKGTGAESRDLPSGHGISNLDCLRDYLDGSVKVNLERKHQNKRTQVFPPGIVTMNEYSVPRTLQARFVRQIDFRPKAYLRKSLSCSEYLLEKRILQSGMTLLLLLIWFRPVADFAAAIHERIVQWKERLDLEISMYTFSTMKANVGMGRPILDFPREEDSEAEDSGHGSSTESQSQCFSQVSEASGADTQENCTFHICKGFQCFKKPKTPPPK

Amino acid sequences for entries named in this document (tags omitted).
UniProt P35222: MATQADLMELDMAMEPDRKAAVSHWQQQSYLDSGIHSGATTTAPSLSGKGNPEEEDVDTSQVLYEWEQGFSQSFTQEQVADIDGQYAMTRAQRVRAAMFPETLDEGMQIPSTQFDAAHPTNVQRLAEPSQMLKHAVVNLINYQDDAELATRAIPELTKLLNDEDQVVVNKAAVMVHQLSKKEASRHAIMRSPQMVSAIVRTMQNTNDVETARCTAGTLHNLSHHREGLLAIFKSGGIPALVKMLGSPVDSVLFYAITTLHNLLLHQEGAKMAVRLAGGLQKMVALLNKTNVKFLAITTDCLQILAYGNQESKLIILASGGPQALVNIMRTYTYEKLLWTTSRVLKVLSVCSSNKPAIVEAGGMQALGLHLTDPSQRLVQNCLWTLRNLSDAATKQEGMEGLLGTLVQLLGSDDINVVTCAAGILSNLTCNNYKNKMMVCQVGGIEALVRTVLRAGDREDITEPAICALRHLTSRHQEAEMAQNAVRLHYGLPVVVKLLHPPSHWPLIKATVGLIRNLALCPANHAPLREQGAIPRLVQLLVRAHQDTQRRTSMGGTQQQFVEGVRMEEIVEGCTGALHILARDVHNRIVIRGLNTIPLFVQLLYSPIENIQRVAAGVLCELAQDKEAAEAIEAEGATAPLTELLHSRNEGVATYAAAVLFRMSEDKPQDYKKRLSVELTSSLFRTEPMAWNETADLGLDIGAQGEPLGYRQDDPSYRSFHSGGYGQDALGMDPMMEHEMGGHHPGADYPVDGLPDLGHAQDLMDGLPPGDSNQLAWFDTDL

[1] = molecular target: β-catenin (human (endogenous in HCT116)) (UniProt P35222); assay: co-IP; 500 µg nuclear or cytoplasmic extract of HCT116 cells transfected with T-Antigen or empty vector; IP with 10 µg anti-β-catenin antibody overnight at 4°C, Protein A/G magnetic beads, washed in HNTG buffer (20 mM HEPES, 150 mM NaCl, 10% glycerol, 0.1% Triton X-100); Western blot for T-Antigen

| Molecule | binding (JCV T-Antigen (JC virus)) | binding [1] |
| --- | --- | --- |
| β-catenin (from UniProt P35222 1-781) | binds |  |
| JCV T-Antigen (natural protein) MDKVLNREESMELMDLLGLDRSAWGNIPVMRKAYLKKCKELHPDKGGDEDKMKRMNFLYKKMEQGVKVAHQPDFGTWNSSEVPTYGTDEWESWWNTFNEKWDEDLFCHEEMFASDDENTGSQHSTPPKKKKKVEDPKDFPVDLHAFLSQAVFSNRTVASFAVYTTKEKAQILYKKLMEKYSVTFISRHGFGGHNILFFLTPHRHRVSAINNYCQKLCTFSFLICKGVNKEYLFYSALCRQPYAVVEESIQGGLKEHDFNPEEPEETKQVSWKLVTQYALETKCEDVFLLMGMYLDFQENPQQCKKCEKKDQPNHFNHHEKHYYNAQIFADSKNQKSICQQAVDTVAAKQRVDSIHMTREEMLVERFNFLLDKMDLIFGAHGNAVLEQYMAGVAWIHCLLPQMDTVIYDFLKCIVLNIPKKRYWLFKGPIDSGKTTLAAALLDLCGGKSLNVNMPLERLNFELGVGIDQFMVVFEDVKGTGAESRDLPSGHGISNLDCLRDYLDGSVKVNLERKHQNKRTQVFPPGIVTMNEYSVPRTLQARFVRQIDFRPKAYLRKSLSCSEYLLEKRILQSGMTLLLLLIWFRPVADFAAAIHERIVQWKERLDLEISMYTFSTMKANVGMGRPILDFPREEDSEAEDSGHGSSTESQSQCFSQVSEASGADTQENCTFHICKGFQCFKKPKTPPPK |  | binds |
